Experimental data from article doi:10.1101/180380.
These are yes or no findings as the source states them, for the method shown. Binding seen in cells or lysates may run through a third protein. Binding calls can cover weak binding; strength is not graded here. Sequences can lack the tags named with a protein.

B1: BAM3-GFP (receptor, UniProt O65440 22-992)
chain: SLISPLNLSLIRQANVLISLKQSFDSYDPSLDSWNIPNFNSLCSWTGVSCDNLNQSITRLDLSNLNISGTISPEISRLSPSLVFLDISSNSFSGELPKEIYELSGLEVLNISSNVFEGELETRGFSQMTQLVTLDAYDNSFNGSLPLSLTTLTRLEHLDLGGNYFDGEIPRSYGSFLSLKFLSLSGNDLRGRIPNELANITTLVQLYLGYYNDYRGGIPADFGRLINLVHLDLANCSLKGSIPAELGNLKNLEVLFLQTNELTGSVPRELGNMTSLKTLDLSNNFLEGEIPLELSGLQKLQLFNLFFNRLHGEIPEFVSELPDLQILKLWHNNFTGKIPSKLGSNGNLIEIDLSTNKLTGLIPESLCFGRRLKILILFNNFLFGPLPEDLGQCEPLWRFRLGQNFLTSKLPKGLIYLPNLSLLELQNNFLTGEIPEEEAGNAQFSSLTQINLSNNRLSGPIPGSIRNLRSLQILLLGANRLSGQIPGEIGSLKSLLKIDMSRNNFSGKFPPEFGDCMSLTYLDLSHNQISGQIPVQISQIRILNYLNVSWNSFNQSLPNELGYMKSLTSADFSHNNFSGSVPTSGQFSYFNNTSFLGNPFLCGFSSNPCNGSQNQSQSQLLNQNNARSRGEISAKFKLFFGLGLLGFFLVFVVLAVVKNRRMRKNNPNLWKLIGFQKLGFRSEHILECVKENHVIGKGGRGIVYKGVMPNGEEVAVKKLLTITKGSSHDNGLAAEIQTLGRIRHRNIVRLLAFCSNKDVNLLVYEYMPNGSLGEVLHGKAGVFLKWETRLQIALEAAKGLCYLHHDCSPLIIHRDVKSNNILLGPEFEAHVADFGLAKFMMQDNGASECMSSIAGSYGYIAPEYAYTLRIDEKSDVYSFGVVLLELITGRKPVDNFGEEGIDIVQWSKIQTNCNRQGVVKIIDQRLSNIPLAEAMELFFVAMLCVQEHSVERPTMREVVQMISQAKQPNTF
B2: BAM1-GFP from Arabidopsis (BARELY ANY MERISTEM 1) (receptor, UniProt O49545 20-1003)
chain: SRPISEFRALLSLKTSLTGAGDDKNSPLSSWKVSTSFCTWIGVTCDVSRRHVTSLDLSGLNLSGTLSPDVSHLRLLQNLSLAENLISGPIPPEISSLSGLRHLNLSNNVFNGSFPDEISSGLVNLRVLDVYNNNLTGDLPVSVTNLTQLRHLHLGGNYFAGKIPPSYGSWPVIEYLAVSGNELVGKIPPEIGNLTTLRELYIGYYNAFEDGLPPEIGNLSELVRFDGANCGLTGEIPPEIGKLQKLDTLFLQVNVFSGPLTWELGTLSSLKSMDLSNNMFTGEIPASFAELKNLTLLNLFRNKLHGEIPEFIGDLPELEVLQLWENNFTGSIPQKLGENGKLNLVDLSSNKLTGTLPPNMCSGNKLETLITLGNFLFGSIPDSLGKCESLTRIRMGENFLNGSIPKGLFGLPKLTQVELQDNYLSGELPVAGGVSVNLGQISLSNNQLSGPLPPAIGNFTGVQKLLLDGNKFQGPIPSEVGKLQQLSKIDFSHNLFSGRIAPEISRCKLLTFVDLSRNELSGEIPNEITAMKILNYLNLSRNHLVGSIPGSISSMQSLTSLDFSYNNLSGLVPGTGQFSYFNYTSFLGNPDLCGPYLGPCKDGVAKGGHQSHSKGPLSASMKLLLVLGLLVCSIAFAVVAIIKARSLKKASESRAWRLTAFQRLDFTCDDVLDSLKEDNIIGKGGAGIVYKGVMPNGDLVAVKRLAAMSRGSSHDHGFNAEIQTLGRIRHRHIVRLLGFCSNHETNLLVYEYMPNGSLGEVLHGKKGGHLHWDTRYKIALEAAKGLCYLHHDCSPLIVHRDVKSNNILLDSNFEAHVADFGLAKFLQDSGTSECMSAIAGSYGYIAPEYAYTLKVDEKSDVYSFGVVLLELVTGRKPVGEFGDGVDIVQWVRKMTDSNKDSVLKVLDPRLSSIPIHEVTHVFYVAMLCVEEQAVERPTMREVVQILTEIPKLPPSKDQPMTESAPESELSPKSGVQSPPDLLNL
B3: BAM2-GFP (receptor, UniProt Q9M2Z1 23-1002)
chain: KPITELHALLSLKSSFTIDEHSPLLTSWNLSTTFCSWTGVTCDVSLRHVTSLDLSGLNLSGTLSSDVAHLPLLQNLSLAANQISGPIPPQISNLYELRHLNLSNNVFNGSFPDELSSGLVNLRVLDLYNNNLTGDLPVSLTNLTQLRHLHLGGNYFSGKIPATYGTWPVLEYLAVSGNELTGKIPPEIGNLTTLRELYIGYYNAFENGLPPEIGNLSELVRFDAANCGLTGEIPPEIGKLQKLDTLFLQVNAFTGTITQELGLISSLKSMDLSNNMFTGEIPTSFSQLKNLTLLNLFRNKLYGAIPEFIGEMPELEVLQLWENNFTGSIPQKLGENGRLVILDLSSNKLTGTLPPNMCSGNRLMTLITLGNFLFGSIPDSLGKCESLTRIRMGENFLNGSIPKELFGLPKLSQVELQDNYLTGELPISGGGVSGDLGQISLSNNQLSGSLPAAIGNLSGVQKLLLDGNKFSGSIPPEIGRLQQLSKLDFSHNLFSGRIAPEISRCKLLTFVDLSRNELSGDIPNELTGMKILNYLNLSRNHLVGSIPVTIASMQSLTSVDFSYNNLSGLVPSTGQFSYFNYTSFVGNSHLCGPYLGPCGKGTHQSHVKPLSATTKLLLVLGLLFCSMVFAIVAIIKARSLRNASEAKAWRLTAFQRLDFTCDDVLDSLKEDNIIGKGGAGIVYKGTMPKGDLVAVKRLATMSHGSSHDHGFNAEIQTLGRIRHRHIVRLLGFCSNHETNLLVYEYMPNGSLGEVLHGKKGGHLHWNTRYKIALEAAKGLCYLHHDCSPLIVHRDVKSNNILLDSNFEAHVADFGLAKFLQDSGTSECMSAIAGSYGYIAPEYAYTLKVDEKSDVYSFGVVLLELITGKKPVGEFGDGVDIVQWVRSMTDSNKDCVLKVIDLRLSSVPVHEVTHVFYVALLCVEEQAVERPTMREVVQILTEIPKIPLSKQQAAESDVTEKAPAINESSPDSGSPPDLLSN
B4: BAM2 fused to a fluorescent protein for FRET-FLIM (receptor, UniProt Q9M2Z1 23-1002)
chain: KPITELHALLSLKSSFTIDEHSPLLTSWNLSTTFCSWTGVTCDVSLRHVTSLDLSGLNLSGTLSSDVAHLPLLQNLSLAANQISGPIPPQISNLYELRHLNLSNNVFNGSFPDELSSGLVNLRVLDLYNNNLTGDLPVSLTNLTQLRHLHLGGNYFSGKIPATYGTWPVLEYLAVSGNELTGKIPPEIGNLTTLRELYIGYYNAFENGLPPEIGNLSELVRFDAANCGLTGEIPPEIGKLQKLDTLFLQVNAFTGTITQELGLISSLKSMDLSNNMFTGEIPTSFSQLKNLTLLNLFRNKLYGAIPEFIGEMPELEVLQLWENNFTGSIPQKLGENGRLVILDLSSNKLTGTLPPNMCSGNRLMTLITLGNFLFGSIPDSLGKCESLTRIRMGENFLNGSIPKELFGLPKLSQVELQDNYLTGELPISGGGVSGDLGQISLSNNQLSGSLPAAIGNLSGVQKLLLDGNKFSGSIPPEIGRLQQLSKLDFSHNLFSGRIAPEISRCKLLTFVDLSRNELSGDIPNELTGMKILNYLNLSRNHLVGSIPVTIASMQSLTSVDFSYNNLSGLVPSTGQFSYFNYTSFVGNSHLCGPYLGPCGKGTHQSHVKPLSATTKLLLVLGLLFCSMVFAIVAIIKARSLRNASEAKAWRLTAFQRLDFTCDDVLDSLKEDNIIGKGGAGIVYKGTMPKGDLVAVKRLATMSHGSSHDHGFNAEIQTLGRIRHRHIVRLLGFCSNHETNLLVYEYMPNGSLGEVLHGKKGGHLHWNTRYKIALEAAKGLCYLHHDCSPLIVHRDVKSNNILLDSNFEAHVADFGLAKFLQDSGTSECMSAIAGSYGYIAPEYAYTLKVDEKSDVYSFGVVLLELITGKKPVGEFGDGVDIVQWVRSMTDSNKDCVLKVIDLRLSSVPVHEVTHVFYVALLCVEEQAVERPTMREVVQILTEIPKIPLSKQQAAESDVTEKAPAINESSPDSGSPPDLLSN
B5: BAM3 fused to a fluorescent protein for FRET-FLIM (receptor, UniProt O65440 22-992)
chain: SLISPLNLSLIRQANVLISLKQSFDSYDPSLDSWNIPNFNSLCSWTGVSCDNLNQSITRLDLSNLNISGTISPEISRLSPSLVFLDISSNSFSGELPKEIYELSGLEVLNISSNVFEGELETRGFSQMTQLVTLDAYDNSFNGSLPLSLTTLTRLEHLDLGGNYFDGEIPRSYGSFLSLKFLSLSGNDLRGRIPNELANITTLVQLYLGYYNDYRGGIPADFGRLINLVHLDLANCSLKGSIPAELGNLKNLEVLFLQTNELTGSVPRELGNMTSLKTLDLSNNFLEGEIPLELSGLQKLQLFNLFFNRLHGEIPEFVSELPDLQILKLWHNNFTGKIPSKLGSNGNLIEIDLSTNKLTGLIPESLCFGRRLKILILFNNFLFGPLPEDLGQCEPLWRFRLGQNFLTSKLPKGLIYLPNLSLLELQNNFLTGEIPEEEAGNAQFSSLTQINLSNNRLSGPIPGSIRNLRSLQILLLGANRLSGQIPGEIGSLKSLLKIDMSRNNFSGKFPPEFGDCMSLTYLDLSHNQISGQIPVQISQIRILNYLNVSWNSFNQSLPNELGYMKSLTSADFSHNNFSGSVPTSGQFSYFNNTSFLGNPFLCGFSSNPCNGSQNQSQSQLLNQNNARSRGEISAKFKLFFGLGLLGFFLVFVVLAVVKNRRMRKNNPNLWKLIGFQKLGFRSEHILECVKENHVIGKGGRGIVYKGVMPNGEEVAVKKLLTITKGSSHDNGLAAEIQTLGRIRHRNIVRLLAFCSNKDVNLLVYEYMPNGSLGEVLHGKAGVFLKWETRLQIALEAAKGLCYLHHDCSPLIIHRDVKSNNILLGPEFEAHVADFGLAKFMMQDNGASECMSSIAGSYGYIAPEYAYTLRIDEKSDVYSFGVVLLELITGRKPVDNFGEEGIDIVQWSKIQTNCNRQGVVKIIDQRLSNIPLAEAMELFFVAMLCVQEHSVERPTMREVVQMISQAKQPNTF
B6: BAM1 from Arabidopsis fused to a fluorescent protein for FRET-FLIM (receptor, UniProt O49545 20-1003)
chain: SRPISEFRALLSLKTSLTGAGDDKNSPLSSWKVSTSFCTWIGVTCDVSRRHVTSLDLSGLNLSGTLSPDVSHLRLLQNLSLAENLISGPIPPEISSLSGLRHLNLSNNVFNGSFPDEISSGLVNLRVLDVYNNNLTGDLPVSVTNLTQLRHLHLGGNYFAGKIPPSYGSWPVIEYLAVSGNELVGKIPPEIGNLTTLRELYIGYYNAFEDGLPPEIGNLSELVRFDGANCGLTGEIPPEIGKLQKLDTLFLQVNVFSGPLTWELGTLSSLKSMDLSNNMFTGEIPASFAELKNLTLLNLFRNKLHGEIPEFIGDLPELEVLQLWENNFTGSIPQKLGENGKLNLVDLSSNKLTGTLPPNMCSGNKLETLITLGNFLFGSIPDSLGKCESLTRIRMGENFLNGSIPKGLFGLPKLTQVELQDNYLSGELPVAGGVSVNLGQISLSNNQLSGPLPPAIGNFTGVQKLLLDGNKFQGPIPSEVGKLQQLSKIDFSHNLFSGRIAPEISRCKLLTFVDLSRNELSGEIPNEITAMKILNYLNLSRNHLVGSIPGSISSMQSLTSLDFSYNNLSGLVPGTGQFSYFNYTSFLGNPDLCGPYLGPCKDGVAKGGHQSHSKGPLSASMKLLLVLGLLVCSIAFAVVAIIKARSLKKASESRAWRLTAFQRLDFTCDDVLDSLKEDNIIGKGGAGIVYKGVMPNGDLVAVKRLAAMSRGSSHDHGFNAEIQTLGRIRHRHIVRLLGFCSNHETNLLVYEYMPNGSLGEVLHGKKGGHLHWDTRYKIALEAAKGLCYLHHDCSPLIVHRDVKSNNILLDSNFEAHVADFGLAKFLQDSGTSECMSAIAGSYGYIAPEYAYTLKVDEKSDVYSFGVVLLELVTGRKPVGEFGDGVDIVQWVRKMTDSNKDSVLKVLDPRLSSIPIHEVTHVFYVAMLCVEEQAVERPTMREVVQILTEIPKLPPSKDQPMTESAPESELSPKSGVQSPPDLLNL

Target: C4-3xHA (C4 protein from Tomato yellow leaf curl virus) (Tomato yellow leaf curl virus)
Assay: co-IP

For B1, which binding is on record?
Its binding is “binds weakly”.

B2 was tested. Which binding did it give?
Its binding is “binds”.

For B3, which binding is on record?
Its binding is “binds”.

Target: C4 fused to a fluorescent protein for FRET-FLIM (Tomato yellow leaf curl virus)
Assay: FRET or BRET

Which binding does the source give for B4 here?
Its binding is “binds”.

Which binding does the source give for B5 here?
Its binding is “binds weakly”.

How did the binding turn out when B6 was run?
Its binding is “binds”.
